Data on 65 compounds can be found in PubChem BioAssay AID662 (National Center for Advancing Translational Sciences (NCATS), 2007).

The other results are listed elsewhere or left out. These are further read-outs of the screen, such as a control signal, another cell line or another target. No call is given for them. Compounds called inactive in the main read-out are mostly missing here. The note in brackets gives the kind of curve behind each potency; many fits are weak.

The test in a line: Cell signaling CRE-BLA (Fsk stim). The settings on record: CHO CRE-bla reporter (cAMP response element driving beta-lactamase), forskolin EC10, beta-lactamase ratio; measured here: 460 nm blue channel. A digest of the protocol: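 Reporter-gene assay: CHO cells with beta-lactamase behind cAMP responsive elements, co-treated with compound and EC10 NKH 477 for 3 hours at 37 degrees Celsius. Activity came from the 460/530 nm CCF4 emission ratio.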
In the case of `Cc1noc(C)c1CSc1nnc(-c2ccccc2F)n1CCc1ccccc1`, the AC50 – broadly, the concentration giving half of the maximal activity seen – is 5.01 µM [falling, single point].
To `CSc1nc(-c2ccccc2O)nc(-c2ccccc2O)n1` belongs 15.8 µM [rising, single point]; to `CCOC(=O)N1CCC(n2c(SCC(=O)Nc3nccs3)nc3ccsc3c2=O)CC1`, 0.00398 µM [falling, full curve, poor fit].
To `C[C@@H]1C[C@@H]2[C@H]3CCC4=CC(=O)C=C[C@]4(C)[C@]3(F)[C@@H](O)C[C@@]2(C)[C@@]1(O)C(=O)CO` belongs 31.6 µM [falling, single point]; to `CCn1c(SCC(=O)Nc2cc(C)ccc2C)nnc1-c1cnccn1`, 2 µM [rising, full curve].
The figure for `CCOc1ccc(OCC)c(NC(=O)CSc2nc3c(c(=O)n(C)c(=O)n3C)n2CC)c1` is 1.58 µM [rising, full curve].
As to `Cc1ccc(OC(=O)c2ccc(C)c(C)c2)cn1`, the AC50 is 0.00794 µM [falling, full curve, poor fit].
The figure for `CSc1nc(N)nc(SCC(=O)c2ccccc2)c1C#N` is 12.6 µM [rising, partial curve].
The figure for `c1ccc(-c2nnc3sc(CN4CCc5ccccc54)cn23)cc1` is 12.6 µM [rising, single point]; for `COc1ccc(NC(=O)N2CCC3(CC2)CCN(C(=O)c2cnccn2)CC3)cc1` it is 1.58 µM [falling, full curve, poor fit]; for `O=C(Nc1ccccc1)Nc1ccccn1` it is 3.16 µM [falling, single point].
The figure for `O=C(Oc1ccc(OC(=O)c2ccncc2)cc1)c1ccncc1` is 0.0126 µM [falling, full curve, poor fit].
With `O=C(CN(c1ccc2c(c1)OCCO2)S(=O)(=O)c1ccccc1)Nc1ccc2c(c1)OCO2`, the AC50 is 15.8 µM [falling, partial curve].
To `CCOC(=O)c1ccc2nc(C(F)(F)F)[nH]c(=O)c2c1` belongs 5.01 µM [rising, single point]; to `CC(=O)c1ccc(N2C(=NC(=O)C(C)C)SC3CS(=O)(=O)CC32)cc1` (stereo not given), 25.1 µM [rising, single point].
Regarding `COCCN1C(=O)c2oc3c(C)cc(C)cc3c(=O)c2C1c1cccc(O)c1` (stereo not given), the AC50 was 10 µM [rising, partial curve].
To `c1ccc(-n2ncc3c(NCc4cccnc4)ncnc32)cc1` belongs 10 µM [rising, single point].
The figure for `CCOCCCn1c(=NC(C)=O)c(C(=O)OCC)cc2c(=O)n3ccccc3nc21` is 12.6 µM [rising, partial curve]; for `O=C(C1CCC1)N1CCc2cc(S(=O)(=O)NCCN3CCN(c4ccccc4F)CC3)ccc21` it is 0.251 µM [rising, full curve, poor fit].
To `O=C(NCc1ccc(N2CCCC2=O)cc1)c1cn(Cc2ccccc2)nn1` belongs 25.1 µM [rising, single point]; to `O=C(CC1Sc2ncnn2C1=O)Nc1ccc(Br)cc1` (stereo not given), 12.6 µM [falling, partial curve]; to `COc1ccc(OC)c(S(=O)(=O)N2CCC(C(=O)Nc3cccc(C(F)(F)F)c3)CC2)c1`, 10 µM [falling, partial curve].
Consider `CC(=O)[C@@H]1[C@@H]2C(=O)N(c3ccc(F)c(Cl)c3)C(=O)[C@@H]2C2c3ccccc3C=CN21` (stereo not given in full), for which the half-maximal activity concentration (AC50) is 25.1 µM [rising, single point].
With `c1ccc(-c2nc(N3CCCCCC3)c3ccccc3n2)nc1`, the AC50 is 2.51 µM [rising, full curve].
Consider `CCCCNC(=O)C(c1ccc(OCC(=O)OC)c(C(=O)OC)c1)N(CCc1ccccn1)C(=O)CCCCCN1C(=O)NC(c2ccc(-c3ccccc3)cc2)C(C(=O)OCc2ccccc2)=C1C` (stereo not given), for which the AC50 was 3.16 µM [rising, partial curve].
The figure for `CCOC(=O)CNc1c(-c2ccc(O)cc2)nc2ccc(Cl)cn12` is 0.1 µM [falling, full curve, poor fit]; for `c1coc(-c2nnc(SCc3cn4ccccc4n3)o2)c1` it is 10 µM [rising, partial curve]; for `Cc1cc(-c2ccco2)c(C#N)c2nc3ccccc3n12` it is 5.01 µM [rising, partial curve].
To `COc1ccc(C(=O)N2CCCC(c3nc(-c4cc(OC)c(OC)c(OC)c4)no3)C2)cc1` (stereo not given) belongs 12.6 µM [rising, partial curve]; to `CN(CC(=O)N1CCN(c2ccccc2)CC1)S(=O)(=O)c1cnc[nH]1`, 0.1 µM [falling, full curve].
To `O=C(NCc1ccc2c(c1)OCO2)c1ccc(COc2cccc(Cl)c2)o1` belongs 12.6 µM [falling, single point].
Consider `CCCCCCC1C(C#N)=C(N)OC2=C1C(=O)CC(C)(C)C2` (stereo not given), for which the AC50 is 12.6 µM [rising, partial curve].
The figure for `O=C(c1ccco1)N1CCN(C(=O)c2ccc(Cn3cc(Br)cn3)o2)CC1` is 0.02 µM [rising, full curve, poor fit]; for `CCCN1Cc2cccc(C(=O)NC3CCCC3)c2C1=O` it is 3.98 µM [falling, single point]; for `O=c1cnc2cnc(OCc3ccccc3)nc2n1Cc1ccc(F)cc1` it is 12.6 µM [rising, single point].
With `CCc1ccccc1NS(=O)(=O)c1ccc2[nH]cc(C(=O)NCC3CCCO3)c(=O)c2c1` (stereo not given), the AC50 is 31.6 µM [falling, partial curve, poor fit].
To `COc1cc(-c2nc(-c3cccc(C)c3)no2)cc(OC)c1OC` belongs 0.794 µM [rising, full curve]; to `COc1cc2c(cc1OC)CN(C(=O)c1ccccc1C(=O)O)CC2`, 12.6 µM [falling, partial curve]; to `O=C(Cn1ccc2ccccc2c1=O)NCCC(=O)N1CCN(C(=O)c2ccco2)CC1`, 25.1 µM [falling, single point].
To `COc1ccc(OC)c(-c2cc(C(=O)N3CCCc4ccccc43)no2)c1` belongs 10 µM [rising, partial curve].
To `COc1ccc(-c2cnnn2-c2ccc(NC(=O)c3ccco3)cc2)cc1OC` belongs 10 µM [rising, partial curve]; to `Cc1ccc(S(=O)(=O)NCC2CCC(C(=O)NCCCN3CCOCC3)CC2)cc1` (stereo not given), 0.00398 µM [falling, full curve, poor fit].
As to `Cc1[nH]nc2c1-c1nc3ccccc3nc1C(C)(C)C2`, the AC50 was 0.316 µM [rising, partial curve, poor fit].
Take `C=CCn1c(N)c(S(=O)(=O)c2cccs2)c2nc3ccccc3nc21`: the AC50 is 12.6 µM [rising, partial curve].
To `O=C(Nc1cccc(NC(=O)N2CCN(c3ccccc3)CC2)c1)N1CCN(c2ccccc2)CC1` belongs 12.6 µM [falling, single point]; to `Cn1c(=O)oc2cc(S(=O)(=O)N3CCCC(C(=O)N4CC=C(c5ccccc5)CC4)C3)ccc21` (stereo not given), 10 µM [falling, single point]; to `O=C(CNS(=O)(=O)c1ccc(Br)s1)N1CCN(c2ncccn2)CC1`, 0.1 µM [falling, single point].
The figure for `CN1[C@@H]2CC[C@H]1CC(OC(c1ccccc1)c1ccccc1)C2` (stereo not given in full) is 0.0251 µM [rising, full curve, poor fit]; for `O=C(NCCN1CCOCC1)c1cc(-c2ccc(Br)cc2)on1` it is 25.1 µM [rising, single point].
For the compound `NC(=O)Cn1c(=O)oc2ccccc21`, the AC50 was 0.251 µM [falling, single point].
The figure for `COc1cccc(/C=N/n2c(-c3ccco3)nc3ccccc3c2=O)c1` is 2.51 µM [rising, full curve]; for `CC(C)C[C@H](NC(=O)OC(C)(C)C)C(=O)N1CCC(C(=O)N[C@@H](Cc2ccccc2)C(=O)O)CC1` it is 3.16 µM [falling, full curve, poor fit]; for `COc1ccc(C(=O)Nc2cccc3c2C(=O)NC3=O)cc1S(=O)(=O)N1CCOCC1` it is 2.51 µM [rising, full curve].
To `COc1ccc(C(=O)Cn2nnc(-c3ccccc3F)n2)cc1` belongs 5.01 µM [falling, single point].
As for `CCS(=O)(=O)n1nc(-c2ccc(OC)cc2)nc1SC`, the AC50 is 15.8 µM [rising, single point].
Turning to `COc1cc2c(cc1OC)-c1cc(NC3CCCCCC3)nc(=O)n1CC2`, the AC50 was 0.501 µM [rising, full curve].
Regarding `CCOC(=O)c1c(NC(=O)c2nn(CC)cc2Br)c(C#N)cn1-c1ccccc1`, the AC50 was 2 µM [rising, full curve].
The figure for `COC(=O)c1ccc(C)c(NC(=O)c2c(-c3ccccc3)noc2C)c1` is 2 µM [falling, partial curve]; for `CCN1c2ccccc2-c2nc3ccccc3n2C1c1cccnc1` (stereo not given) it is 12.6 µM [rising, partial curve]; for `CN(C(=O)c1cccc(C#N)c1)c1nnc(-c2ccccn2)s1` it is 25.1 µM [falling, single point].
`CCNc1ncc2nc(-c3ccccc3)c(=O)n(C[C@H]3CCCO3)c2n1`: the AC50 is 10 µM [rising, partial curve].
To `Cc1ccc2c(c1)c(C)c(C)n2CC(O)CN1CCOCC1` (stereo not given) belongs 2 µM [rising, single point].
To `COc1ccccc1Nc1nc(N)nc(CN2CCN(c3ccccc3)CC2)n1` belongs 3.98 µM [falling, single point]; to `CC(O)c1nc2ccc(Cc3ccc4nc(C(C)O)[nH]c4c3)cc2[nH]1` (stereo not given), 0.00398 µM [falling, full curve, poor fit]; to `CC(=O)c1c(C)[nH]c(C(=O)OCC(=O)Nc2cc(C(F)(F)F)ccc2N2CCOCC2)c1C`, 12.6 µM [rising, single point].
